Here are results for 33 molecules from PubChem BioAssay AID720706 (Broad Institute, 2013).

This is one part of the list.

This assay can be described thus: reduced GFP signal of wild-type E. coli, primary screen, bacterial rRNA inhibitor project, GFP/RFP fluorescence, OD600, single point (AID 720706). The settings on record: E. coli WT GFP vs humanized-ribosome RFP mutants, 24 h; OD600 change: measured here: OD600 growth, DMSO median 0, no signal -100; RFP signal change: measured here: RFP humanized mutant strains, DMSO median 0, no signal -100, concentration not given here.
For `O=c1[nH]c2ccccc2n1C1CCN(C(c2cccs2)c2nnnn2C2CCCCC2)CC1` (stereo unspecified), the OD600 change was -10.4% and the RFP signal change is -4.84%.
`O=c1[nH]c2ccccc2n1C1CCN(C(c2ccnc3ccccc23)c2nnnn2C2CCCC2)CC1` (stereo unspecified): the OD600 change is -2.74% and the RFP signal change came to 11.3%.
The matching figures for `COc1ccc(C(=O)NCC2(N3CCOCC3)CCCCC2)cc1OC`: 7.78% and 1.21%.
`COc1cc(C(=O)NCC2(N3CCOCC3)CCCCC2)cc(OC)c1C`: the OD600 change came to 2.58% and the RFP signal change was -1.54%.
The matching figures for `CCCCn1nnnc1C(c1ccccc1)N1CCC(n2c(=O)[nH]c3ccccc32)CC1` (stereo unspecified): -38.3% and 4.75%.
As for `O=C(NCC1(N2CCOCC2)CCCCC1)c1cc(Br)ccc1Cl`, the OD600 change was -31.8% and the RFP signal change is -3.15%.
On to `O=c1[nH]c2ccccc2n1C1CCN(C(c2cccs2)c2nnnn2C2CCCC2)CC1` (stereo unspecified), for which the OD600 change was -14.7% and the RFP signal change came out at 1.97%.
In the case of `CCCCn1nnnc1C(c1cccc(OC)c1OC)N1CCC(n2c(=O)[nH]c3ccccc32)CC1` (stereo unspecified), the OD600 change was -29.6% and the RFP signal change is -1.28%.
The corresponding values for `COc1cccc(C(c2nnnn2C(C)(C)C)N2CCC(n3c(=O)[nH]c4ccccc43)CC2)c1OC` (stereo unspecified) are -22.4% and -1.78%.
Turning to `CCOC(=O)N1CCC(Nc2ccc(C)cc2)CC1`, the OD600 change turned out to be 7.22% and the RFP signal change is -4.16%.
As to `O=C(O)C1(Nc2ccccc2)CCN(Cc2ccccc2)CC1`, the OD600 change was determined as 14.7% and the RFP signal change was -0.698%.
For the molecule `NN(c1ccccc1)C1CCN(CCc2ccccc2)CC1`, the OD600 change was determined as 6.35% and the RFP signal change is -1.58%.
For the molecule `CC(C)(C)OC(=O)N1CCC(Nc2ccccc2)CC1`, the OD600 change turned out to be 8.54% and the RFP signal change turned out to be 7.35%.
The corresponding values for `CCCOc1ccc(C(=O)NCC2(N(C)C)CCCCC2)cc1` are 17.1% and 3.79%.
As for `O=c1[nH]c2ccccc2n1C1CCN(C(c2cc3ccccc3o2)c2nnnn2C2CCCC2)CC1` (stereo unspecified), the OD600 change came to 11.1% and the RFP signal change was determined as 2.68%.
The matching figures for `CN1CCC(Nc2ccc(F)c(Cl)c2)CC1`: -0.87% and 0.468%.
Turning to `CN1CCC(Nc2ccc(Cl)cc2)CC1`, the OD600 change is 2.58% and the RFP signal change is 4.91%.
As to `COc1cc(OC)cc(C(=O)NCC2(N3CCOCC3)CCCCC2)c1`, the OD600 change is -5.12% and the RFP signal change was 0.81%.
With `COc1cccc(C(c2nnnn2C2CCCC2)N2CCC(n3c(=O)[nH]c4ccccc43)CC2)c1OC` (stereo unspecified), the OD600 change was -20.5% and the RFP signal change was -4.46%.
`COc1cccc(C(=O)N(c2cc(C)cc(C)c2)C2CCN(C(=O)OC(C)(C)C)CC2)c1`: the OD600 change worked out at 2.03% and the RFP signal change is -1.89%.
Regarding `Fc1ccccc1NC1CCN(Cc2ccccc2)CC1`, the OD600 change is 8.46% and the RFP signal change was found to be 2.87%.
As to `Cc1ccc(C(=O)NCC2(N3CCCCC3)CCCCC2)o1`, the OD600 change stood at 9.98% and the RFP signal change is 0.135%.
On to `CCC(c1nnnn1C1CCCCC1)N1CCC(n2c(=O)[nH]c3ccccc32)CC1` (stereo unspecified), for which the OD600 change is -24.2% and the RFP signal change is -2.31%.
In the case of `CC(=O)N(c1ccccc1)C1CCNCC1`, the OD600 change amounted to 14.6% and the RFP signal change came to 0.81%.
For the molecule `COc1cccc(C(c2nnnn2C2CCCCC2)N2CCC(n3c(=O)[nH]c4ccccc43)CC2)c1OC` (stereo unspecified), the OD600 change was 11.4% and the RFP signal change is -8.53%.
On to `O=c1[nH]c2ccccc2n1C1CCN(C(c2ccnc3ccccc23)c2nnnn2C2CCCCC2)CC1` (stereo unspecified), for which the OD600 change worked out at 17.5% and the RFP signal change was 0.694%.
In the case of `COc1cc(OC)cc(C(=O)NCC2(N3CCCCC3)CCCCC2)c1`, the OD600 change is 3.67% and the RFP signal change was found to be 0.025%.
In the case of `Cn1c(=O)[nH]cc(N(CCCl)CCCl)c1=O`, the OD600 change came out at 25.6% and the RFP signal change is -0.075%.
Take `CN(C)c1ccc(C(=O)NCC2(N3CCCCC3)CCCCC2)cc1`: the OD600 change came out at 11.8% and the RFP signal change is 2.99%.
Consider `O=C(NCC1(N2CCCCC2)CCCCC1)c1ccco1`, for which the OD600 change came out at 1.77% and the RFP signal change came to 32.8%.
Regarding `CC(C)(C)n1nnnc1C(c1ccnc2ccccc12)N1CCC(n2c(=O)[nH]c3ccccc32)CC1` (stereo unspecified), the OD600 change was -37.5% and the RFP signal change was -6.29%.
The matching figures for `COc1ccc(C(c2nnnn2C2CCCCC2)N2CCC(n3c(=O)[nH]c4ccccc43)CC2)cc1` (stereo unspecified): -4.28% and 4.36%.
Turning to `Cc1ccccc1NC1(C#N)CCN(Cc2ccccc2)CC1`, the OD600 change came out at 17.5% and the RFP signal change turned out to be 2.44%.
